Construct, isoform or probe ends are uncertain for at least one entry.
Target: Hfq (UniProt P0A6X3)
Assay: footprinting (lead acetate)
Details: 1 uM Hfq, yeast tRNA 0.15 mg/ml competitor, Footprint: about 0.2 pmol 5'-32P oppA RNA with 1 uM Hfq, 10 min 37 C, then 10 mM PbAc 2 min, recombinant protein, label: 5'-32P, probe letters rebuilt from the primers and the genome

Amino acid sequences for entries named in this document (tags omitted). A change or cut given only in a name is not applied to a line headed by its entry.
UniProt P0A6X3: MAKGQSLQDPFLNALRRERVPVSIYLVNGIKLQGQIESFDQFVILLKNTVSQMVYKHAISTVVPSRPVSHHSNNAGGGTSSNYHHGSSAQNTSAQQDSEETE

“GGGAUCGACAUAAGGUGAUCGUCUGAAUCACCAGAAUAAAUAAAGUCGGUGAUAGUAAUACGUAACGAUAAAGUAACCUGACAGCAGAAAGUCUCCGAGCCUGUGCAGGGUCCCAAUCCGGGAUUACACAUGCUGGUUAAUACCAGUAAUUAUAAUGAGGGAGUCCAAAAAACAAUGACCAACAUCACCAAGAGAAGUUUAGUAGCAGCUGGCGUUCUGGCUGCGCUAAUGGCAGGGAAUGUCGCGCUGGCAGCUGAUGUACCCGCAGGCGUCACACUGGCGGAAAAACAAACACUGGUACGUAACAAUGGUUCAGAAG [oppA 5'UTR RNA from cleavage site +341 (γ-oppA)]”: binds.

Source: paper PMC9988348
